≈ marks a conversion by molar mass, not a printed value.
Tests used:
Cytochrome P450 3A4 [1] = target: T1, Cytochrome P450 3A4 (Homo sapiens, UniProt P08684); conditions: microsomes
Cytochrome P450 3A4 [2] = target: T1, Cytochrome P450 3A4; experiment: Inhibition of recombinant human CYP3A4 expressed in Escherichia coli assessed as maximum reduction in metabolite formation using coumarin based substrate by fluorescence assay
Cytochrome P450 3A4 [3] = target: T1, Cytochrome P450 3A4; conditions: recombinant enzyme, 3 h, 1 µM
physchem = conditions: buffer, pH 7.4
[4] = Distribution coefficient between octanol and sodium phosphate buffer, logD of the compound in pH 7.4 buffer by LC-MS/MS-based shake flask method; conditions: octanol/water
Cytochrome P450 [5] = conditions: human, hepatocytes, 2 h
Cytochrome P450 [6] = conditions: human, hepatocytes, 2 h; remark: listed apart in the source
[7] = target: Voltage-gated inwardly rectifying potassium channel KCNH2 (Homo sapiens, UniProt Q12809); experiment: Inhibition of human ERG by high-throughput electrophysiology assay

By UniProt entry, the sequences of proteins in these tests, tags left out. Where a name states a change or a piece, a line headed by the entry shows the natural chain unless it says otherwise.
UniProt Q12809: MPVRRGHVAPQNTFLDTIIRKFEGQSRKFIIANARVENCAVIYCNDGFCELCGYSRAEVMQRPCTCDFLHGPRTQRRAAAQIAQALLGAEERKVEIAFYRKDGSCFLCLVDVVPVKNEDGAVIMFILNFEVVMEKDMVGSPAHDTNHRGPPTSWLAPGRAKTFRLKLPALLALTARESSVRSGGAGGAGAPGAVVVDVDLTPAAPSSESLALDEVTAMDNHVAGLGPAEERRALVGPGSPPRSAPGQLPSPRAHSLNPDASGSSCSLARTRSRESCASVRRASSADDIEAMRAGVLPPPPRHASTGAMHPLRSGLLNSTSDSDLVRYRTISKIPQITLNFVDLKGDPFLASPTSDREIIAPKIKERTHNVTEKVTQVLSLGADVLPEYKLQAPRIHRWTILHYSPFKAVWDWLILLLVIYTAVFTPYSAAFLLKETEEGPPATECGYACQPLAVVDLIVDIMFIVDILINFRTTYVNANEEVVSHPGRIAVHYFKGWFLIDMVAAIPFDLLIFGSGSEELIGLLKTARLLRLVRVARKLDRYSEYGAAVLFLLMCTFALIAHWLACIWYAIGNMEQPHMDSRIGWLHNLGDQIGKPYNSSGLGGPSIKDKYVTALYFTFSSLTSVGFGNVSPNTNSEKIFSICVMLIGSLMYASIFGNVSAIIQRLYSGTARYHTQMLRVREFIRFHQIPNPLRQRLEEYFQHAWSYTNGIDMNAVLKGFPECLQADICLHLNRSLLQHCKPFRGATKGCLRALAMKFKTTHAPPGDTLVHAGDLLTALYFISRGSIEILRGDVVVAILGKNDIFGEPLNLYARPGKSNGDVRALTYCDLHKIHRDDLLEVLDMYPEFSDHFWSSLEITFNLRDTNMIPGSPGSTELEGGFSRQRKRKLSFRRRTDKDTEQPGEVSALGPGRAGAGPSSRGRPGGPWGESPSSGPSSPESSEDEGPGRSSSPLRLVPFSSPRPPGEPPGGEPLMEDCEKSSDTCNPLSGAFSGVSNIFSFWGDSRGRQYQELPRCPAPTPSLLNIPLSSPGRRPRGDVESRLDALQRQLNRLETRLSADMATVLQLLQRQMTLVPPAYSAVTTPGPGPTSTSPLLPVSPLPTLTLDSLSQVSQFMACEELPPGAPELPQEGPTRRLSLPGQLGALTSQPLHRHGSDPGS

SMILES | Drug metabolism (Cytochrome P450 3A4 [1]) | IC50 (Cytochrome P450 3A4 [2]) | Drug metabolism (Cytochrome P450 3A4 [3]) | solubility at 24 h (physchem) | logD [4] | Drug metabolism (Cytochrome P450 [5]) | Drug metabolism (Cytochrome P450 [6]) | IC50 [7]
Cn1cc(NC(=O)[C@@H]2CCCC[C@H]2C(=O)c2ccc(-c3cc[nH]n3)cc2)c(C(F)(F)F)n1 | 94% | 20 µM | 57% | 73 µM (≈ 32.5 µg/mL) | 3.4 | 2% | 26% | > 31.6 µM
Cc1noc(C)c1NC(=O)[C@@H]1CCCC[C@H]1C(=O)c1ccc(-c2cc[nH]n2)cc1 (racemic) | – | 3.98 µM | – | 92 µM (≈ 36.1 µg/mL) | 3.1 | – | – | > 12.6 µM

From ChEMBL document CHEMBL4350955, “Novel Chemical Series of 5-Lipoxygenase-Activating Protein Inhibitors for Treatment of Coronary Artery Disease” (J Med Chem, 2019)
